Among the data in PMC3510517 are binding values, retold here.

This assay has as its target T1, Sgf11 (Drosophila (endogenous in embryos)) (UniProt Q9VVR6).
T1 sequence: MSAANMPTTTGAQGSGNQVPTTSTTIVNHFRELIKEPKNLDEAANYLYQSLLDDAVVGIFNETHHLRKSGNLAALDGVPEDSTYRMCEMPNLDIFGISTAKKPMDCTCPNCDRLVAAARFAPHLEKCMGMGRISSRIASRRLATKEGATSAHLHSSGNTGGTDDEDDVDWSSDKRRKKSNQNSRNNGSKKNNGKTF
Briefly: affinity purification with mass spectrometry; stepwise chromatography of embryonic nuclear extract, Superose 6 fractions 33-35 (about 100 kDa) loaded on immobilised anti-Sgf11 antibodies, washed with HEMG-500 with 0.1% NP-40, eluted with acid glycine; SDS-PAGE, Coomassie, MALDI-TOF MS; control with IgG.

No constants are given. Whether binding was seen depends on the method and setting. Binding seen in cells or lysates may run through a third protein. These calls come from enrichment with a bait or labelling near it, and not all partners need be listed.

B1: cap-binding protein 80 (Cbp80) (protein, UniProt Q7K4N3 1-800)
chain: MSRRRAHDTEDEGYDHRRNKRRRVSENQEIEDRLESLILRVGERSTSSVESNLEGLVSVLEADLGTFRLKILRILSDCAVRMPEKCTVYTTLVGLLNAKNYKFGGEFVDHMVKTFKESLKMCRWDAARYSLRFLADLVNCHVISATSLLQLLDTMIDVSNEDTVPQVRRDWFVFAVLSTLPWVGRDLYEKKESALESLLLRIEVYLNKRSKKHHNALRVWSSDAPHPQEEYLDCLWAQIRKLRQDNWAEKHIPRPYLVFDSILCEALQHNLPTIVPPPHHDNFEYPMPWVVYRMFDYTDCPDGPNLPGAHSIERFLIEEHLHHIIETYHHERKDCAAQLLSFPYKHKIPLEYCIVEVVFAELFHMPTPRYLDICYGSILIELCKLQPATLPQVLAQATEILFMRIDSMNTSCFDRFVNWFSYHLSNFKFTWSWDEWDSCLLLDGEHPRPKFIQEVLQKCLRLSYHQRITEMMPTTYAKLIPLTPVPNYKYANEEAANLPGTTVAHQLVVAIRQKCTPEEVVNILKDIPNSGYSGEEMSDGSFNALKIDVFVQTLLNLGSKSFSHSFAAISKFHSVFRALAETEEAQICILHNIFELWSSHQQMMVVLIDKLLKLQIVDCSAVATWIFSKEMTGEFTKLYLWEILHLTIKKMNKHVIKLNTELSEAKEKLAKADSSSSDSEDDSSHKRKKPITHADKPSEEVVERMEEKLEAANVNQKRLFLIVFQRFIMILSEHLLRSDTDGRDPDTDWYRWTIGRLQQVFLMHHEQVQKYSSTLETLLFTSDLDTHILEVFQQFVALRA
For B1, the binding result is reported as “binds”.
